How the values were obtained:
Belimumab (IgG1) [1] = experiment: method not given; paragraph 95 says KD values are by surface plasmon resonance at 22 C +/- 3 C unless indicated otherwise
Belimumab (IgG1) [2] = experiment: dynamic binding capacity at 10% breakthrough, ligand coupled to resin, 6 min residence time, 2.2 mg/ml Belimumab

B1: affinity ligand SEQ ID NO: 2 (designed binder)
chain: AQHDKIQQAAFHEILHLPNLTEEQRNKFIQSLRDDPSVSLEILCEAKKLNDAQAPKIAAQHDKIQQAAFHEILHLPNLTEEQRNKFIQSLRDDPSVSLEILAEAKKLNDAQAPK
Kd (Belimumab (IgG1) [1]): 47.4 nM
DBC10% (dynamic binding capacity) relative to cs26 (Belimumab (IgG1) [2]): 104 % of cs26

Source: patent US20250367575A1 (PUROLITE, published 2025)
